From patent publication US5948693 (dated 1999)

Experiments:
[1] = general procedure: peptide synthesis; PEG-PS with HMPB linker; MBHA polystyrene named as preferred polymer; DIPCDI/HOAt (solid phase); BOP-Cl, DCC/HOBt (solution); (PrPO2)3/DMAP or PyAOP f
[2] = solution-phase peptide synthesis; PAC-MBHA polystyrene; DIPCDI/HOAt (solid phase); BOP-Cl, DCC/HOBt (solution); (PrPO2)3/DMAP or PyAOP f; conditions: whole synthesis

H-Me(3-OH)Leu-Abu-Sar-MeAla-Val-MeAla-Ala-OBzl
step yield ([1]; late stage modification step): 62%

N,O-Isopropylidene-Me(3-OH)Leu-Abu-Sar-MeAla-Val-MeAla-Ala-OBzl
step yield ([1]; coupling step): 55%

MeLeu^1 -Abu^2 -Sar^3 -MeLeu^4 -Val^5 -MeLeu^6 -Ala7-D-Ala^8 -Meleu^9 -MeLeu^10 -MeVal^11
isolated yield [2]: 10-15%

Fmoc-D-Ala-MeLeu-MeLeu-MeVal-Me(3-OH)Leu-Abu-Sar-MeAla-Val-MeAla-Ala-OBzl
step yield ([1]; coupling step): 34%
